From patent US8039464B2, “Muscarinic antagonists with PARP and SIR modulating activity as agents for inflammatory diseases” (ProteoSys AG, priority 2004, dated 2011) come the findings set out here.

The target of this assay is T1, SIR-2 (Mus musculus, UniProt Q923E4).
T1 construct: Using a raw extract from murine embryonic stem cells; host or cells: murine embryonic stem cells (raw extract)
T1 sequence (Q923E4 2-737 limits assumed): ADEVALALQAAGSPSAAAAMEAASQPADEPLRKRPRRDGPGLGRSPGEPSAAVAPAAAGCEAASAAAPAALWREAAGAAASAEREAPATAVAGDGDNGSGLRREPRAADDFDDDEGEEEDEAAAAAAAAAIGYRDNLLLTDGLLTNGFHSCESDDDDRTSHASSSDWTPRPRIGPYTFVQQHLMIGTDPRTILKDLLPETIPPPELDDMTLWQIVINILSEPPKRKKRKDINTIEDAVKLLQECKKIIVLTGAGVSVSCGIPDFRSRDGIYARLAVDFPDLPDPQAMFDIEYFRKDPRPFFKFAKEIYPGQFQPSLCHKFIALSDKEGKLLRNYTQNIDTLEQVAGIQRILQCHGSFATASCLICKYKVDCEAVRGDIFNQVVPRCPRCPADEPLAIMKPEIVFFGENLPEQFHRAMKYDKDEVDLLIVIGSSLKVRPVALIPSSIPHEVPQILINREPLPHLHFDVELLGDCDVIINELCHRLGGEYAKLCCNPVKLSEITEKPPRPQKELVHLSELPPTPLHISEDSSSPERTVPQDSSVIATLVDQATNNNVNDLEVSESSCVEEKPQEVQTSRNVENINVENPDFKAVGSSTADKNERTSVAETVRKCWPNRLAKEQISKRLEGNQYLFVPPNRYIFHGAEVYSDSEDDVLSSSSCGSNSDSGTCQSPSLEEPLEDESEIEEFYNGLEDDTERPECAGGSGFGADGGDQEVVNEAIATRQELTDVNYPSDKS
Kind of assay: SIR2 activity assay (CycLex SIR2 Assay kit). Format: biochemical, murine. Conditions: read-out: IC50 SIR-2 inhibition. The text has this: For measurements of SIR2 activities, the quantitative test kit for NAD-dependent histone deacetylase activity CycLex® SIR2 Assay kit (Cat# CY-1151) was used according to instructions of manufacturer (CycLex Co., Ltd. 1063-103 Ohara, Tera-Sawaoka Ina, Nagano 396-0002 Japan). All substances tested in the SIR assay were cross-checked for their influence on the lysyl-endopeptidase. For this control an already deacetylated substrate peptide was used in order to measure directly lysyl-endopeptidase activity.
For measurements of SIR2 activities, the quantitative test kit for NAD-dependent histone deacetylase activity CycLex® SIR2 Assay kit (Cat# CY-1151) was used according to instructions of manufacturer (CycLex Co., Ltd. 1063-103 Ohara, Tera-Sawaoka Ina, Nagano 396-0002 Japan).

In the case of `CN1CCN(CC(=O)N2c3ccccc3C(=O)Nc3cccnc32)CC1` [Pirenzepine, 5,11-dihydro-11[(4-methyl-1-piperazinyl)-acetyl]-6H-pyrido-[2,3-b]-[1,4]benzodiazepine-6-one, reference compound], the IC50 lay within 1000 to 5000 µM.
